From patent publication EP2570123A1, “Use of 2,4-dichlorobenzyl alcohol having an anaesthetic effect” (Reckitt Benckiser Healthcare (UK) Limited, priority 2007, dated 2009)
At least one compound was matched to its structure with a doubt left.

Amino acid sequences for entries named in this document (tags omitted).
UniProt P04775, whole entry: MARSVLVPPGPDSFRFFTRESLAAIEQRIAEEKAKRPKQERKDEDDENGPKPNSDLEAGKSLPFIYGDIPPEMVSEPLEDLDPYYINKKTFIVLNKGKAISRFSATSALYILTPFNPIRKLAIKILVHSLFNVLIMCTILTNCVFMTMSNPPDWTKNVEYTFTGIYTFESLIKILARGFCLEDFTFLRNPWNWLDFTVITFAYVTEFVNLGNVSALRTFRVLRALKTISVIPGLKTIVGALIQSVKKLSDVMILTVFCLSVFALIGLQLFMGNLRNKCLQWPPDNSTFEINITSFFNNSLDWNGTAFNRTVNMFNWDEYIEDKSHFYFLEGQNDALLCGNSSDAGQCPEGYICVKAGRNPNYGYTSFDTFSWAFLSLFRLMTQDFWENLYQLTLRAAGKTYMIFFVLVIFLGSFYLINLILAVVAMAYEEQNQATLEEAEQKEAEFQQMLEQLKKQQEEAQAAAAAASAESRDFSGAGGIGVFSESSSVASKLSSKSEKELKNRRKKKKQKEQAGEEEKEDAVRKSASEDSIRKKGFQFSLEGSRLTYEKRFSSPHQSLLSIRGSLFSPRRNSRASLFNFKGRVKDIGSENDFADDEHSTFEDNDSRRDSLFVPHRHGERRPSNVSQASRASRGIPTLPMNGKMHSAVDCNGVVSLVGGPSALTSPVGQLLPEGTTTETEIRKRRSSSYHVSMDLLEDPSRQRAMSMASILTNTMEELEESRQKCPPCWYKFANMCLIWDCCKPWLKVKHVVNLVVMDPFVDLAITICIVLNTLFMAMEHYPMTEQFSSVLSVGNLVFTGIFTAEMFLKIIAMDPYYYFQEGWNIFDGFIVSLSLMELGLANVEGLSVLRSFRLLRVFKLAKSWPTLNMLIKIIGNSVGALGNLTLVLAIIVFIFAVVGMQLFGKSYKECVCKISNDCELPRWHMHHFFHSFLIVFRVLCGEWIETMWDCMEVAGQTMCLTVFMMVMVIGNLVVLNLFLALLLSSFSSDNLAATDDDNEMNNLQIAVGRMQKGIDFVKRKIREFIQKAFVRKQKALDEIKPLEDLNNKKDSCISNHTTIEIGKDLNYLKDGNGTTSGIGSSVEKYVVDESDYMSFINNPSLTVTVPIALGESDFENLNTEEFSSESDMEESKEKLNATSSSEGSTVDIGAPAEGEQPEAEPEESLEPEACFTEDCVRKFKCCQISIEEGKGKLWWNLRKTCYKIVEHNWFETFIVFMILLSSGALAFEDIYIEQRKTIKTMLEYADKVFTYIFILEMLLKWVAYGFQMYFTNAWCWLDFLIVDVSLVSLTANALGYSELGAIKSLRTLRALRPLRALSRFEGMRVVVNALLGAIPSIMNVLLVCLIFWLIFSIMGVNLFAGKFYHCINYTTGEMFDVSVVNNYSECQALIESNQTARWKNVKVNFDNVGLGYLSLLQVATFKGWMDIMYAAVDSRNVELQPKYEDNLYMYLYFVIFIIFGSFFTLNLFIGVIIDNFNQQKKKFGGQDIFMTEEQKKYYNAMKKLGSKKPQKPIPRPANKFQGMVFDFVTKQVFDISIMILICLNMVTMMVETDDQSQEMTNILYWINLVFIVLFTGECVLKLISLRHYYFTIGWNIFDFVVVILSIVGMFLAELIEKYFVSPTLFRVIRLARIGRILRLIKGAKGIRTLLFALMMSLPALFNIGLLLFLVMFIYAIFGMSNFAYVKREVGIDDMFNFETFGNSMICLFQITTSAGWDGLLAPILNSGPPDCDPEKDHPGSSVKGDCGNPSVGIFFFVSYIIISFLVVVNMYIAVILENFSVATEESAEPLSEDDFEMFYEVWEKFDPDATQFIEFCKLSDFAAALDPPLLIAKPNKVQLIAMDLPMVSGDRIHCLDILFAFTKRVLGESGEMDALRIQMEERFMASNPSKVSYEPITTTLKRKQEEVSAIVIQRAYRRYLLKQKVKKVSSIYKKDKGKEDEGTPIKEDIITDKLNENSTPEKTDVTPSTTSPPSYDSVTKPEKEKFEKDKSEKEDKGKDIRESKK

Columns and labels:
[1] = target: T1, α-subunit of NaV1.2 neuronal sodium channels (Rattus norvegicus, UniProt P04775); experiment: Whole-cell voltage-clamp, double-pulse protocol: steady-state availability (fast inactivation), voltage shift and model-dependent affinity for inactivated channels; format: cell-based; parameters: expressed in transfected cells; host or cells: HEK 293, stably transfected with expression vector pRc/CMV and selected with G418; conditions: for current inhibition: 1 and 3 µM
Protocol: Transfection was performed using calcium phosphate precipitation. […] Successful channel expression was verified electrophysiologically.
The bath solution contained [mM] […] Patch electrodes contained [mM]
Each cell was exposed to one test concentration only.
Experiments with a rise in series resistance were rejected.
Drug binding to inactivated channels is hardly accessible to a direct experimental approach, because inactivated channel states and all drug-bound channel states are unavailable on depolarization. A model-dependent method is generally applied to determine the affinity to fast-inactivated channel states. The voltage-dependence of the block and the affinity for fast-inactivated channel states was further assessed by applying a double-pulse protocol. Currents elicited by test pulses (Itest), starting from varying prepulse potentials (from -150 mV to -5 mV), normalized to the current elicited at the most hyperpolarized prepotential (-150 mV), represent the relative fraction of channels that have not been inactivated during the 100 ms inactivating prepulse. Boltzmann fits to the resulting current-voltage plots yield the membrane potential at half-maximum channel availability (V0.5) and the slope factor k, reflecting the 'voltage sensitivity' of inactivation gating (see Eq. 3). (I)/(Imax) = (1)/(1 + e^(((Vtest -V0.5)/(k)))) [formula]
In control conditions, the parameters of the Boltzmann fits reflect the voltage-dependence of the distribution between resting and fast-inactivated channels (the availability curve). In the presence of the drug, the steady-state availability curve reflects drug association with rested and fast-inactivated channels, respectively. […] The underlying assumption is that the higher amount of channel blockade achieved with consecutive membrane depolarization is determined by the distribution of channels between resting and fast-inactivated states along the voltage axis (i.e. the channel availability curve), and by the different binding affinities of the blocking drug for the two channel states. […]

[2] = target: T1, α-subunit of NaV1.2 neuronal sodium channels
Protocol: Stably transfected HEK 293 cell lines expressing the α-subunit of NaV1.2 neuronal sodium channels from a rat were used. The expression vector pRc/CMV (Invitrogen, San Diego, USA) was used for mammalian transfection. Transfection was performed using calcium phosphate precipitation. Permanent expression was achieved by selection for resistance to the aminoglycoside antibiotic geneticin G418 (Life Technology, Eggenstein, Germany).
The stock solution was then dissolved directly in bath solution. The bath solution contained [mM] NaCl 140, MgCl2 1.0, KCl 4.0, CaCl2 2.0, Hepes 5.0, dextrose 5.0. Patch electrodes contained [mM] CsCl2 130, MgCl2 2.0, EGTA 5.0, Hepes 10. All solutions were adjusted to 290 mosm 1^-1 by the addition of mannitol and to pH 7.4 by the addition ofCsOH.
Standard whole-cell voltage-clamp experiments were performed at 20°C. Each experiment consisted of test recordings with the drug present at only one concentration, and of drug-free control recordings before and after the test. Each cell was exposed to one test concentration only. At least three or five independent experiments were performed at each concentration depending on the active being tested.
For data acquisition and further analysis, a EPC9 digitally-controlled amplifier was used in combination with Pulse and Pulse Fit software (HEKA Electronics, Lambrecht, Germany). The EPC9 provides automatic subtraction of capacitive and leakage currents by means of a prepulse protocol. The data were filtered at 10 kHz and digitized at 20 µs per point. The input resistance of the patch pipettes was 2.0-3.5 MΩ and the capacitances of the cells were 9-15 pF; the residual series resistance (after 50% compensation) was 1.2-2.5 MΩ. Experiments with a rise in series resistance were rejected. […]
Drug effects on the peak current amplitude were assessed at a hyperpolarized membrane potentials (-100 mV and -150mV), at a holding potential close to the normal resting potential in physiological conditions (-70 mV), and, additionally, at -100 mV in the presence of a fraction of slow inactivated channels. […]

With `CCCCCCc1ccc(O)cc1O` [HR, hexylresorcinol] the current inhibition ([1]; hyperpolarized holding potentials (between -150 and -85 mV)) was “minimal”, the current inhibition ([1]; near the potential for half-maximum current inactivation (-55 mV)) was “almost complete current inhibition” and the nHI ([1]; Hill coefficient for inactivated state binding, model fit of Eq.4) was 1.3. The “sensitivity at -70 mV holding potential compared to hyperpolarized holding potentials” value ([2]; -70 mV versus -100 and/or -150 mV) was “increased”, the nHR ([2]; Hill coefficient, resting state binding, -150 mV holding potential) was 0.9 and the “block at hyperpolarized holding potentials” value ([2]; even in high concentrations) was “incomplete”.
